Publication doi:10.1101/298737
These are yes or no findings as the source states them, for the method shown. In cells and extracts the contact can be indirect. These calls come from enrichment with a bait or labelling near it, and not all partners need be listed. No binding means not detected with the bait.

By UniProt entry, the sequences of proteins in these tests, tags left out.
UniProt Q15910: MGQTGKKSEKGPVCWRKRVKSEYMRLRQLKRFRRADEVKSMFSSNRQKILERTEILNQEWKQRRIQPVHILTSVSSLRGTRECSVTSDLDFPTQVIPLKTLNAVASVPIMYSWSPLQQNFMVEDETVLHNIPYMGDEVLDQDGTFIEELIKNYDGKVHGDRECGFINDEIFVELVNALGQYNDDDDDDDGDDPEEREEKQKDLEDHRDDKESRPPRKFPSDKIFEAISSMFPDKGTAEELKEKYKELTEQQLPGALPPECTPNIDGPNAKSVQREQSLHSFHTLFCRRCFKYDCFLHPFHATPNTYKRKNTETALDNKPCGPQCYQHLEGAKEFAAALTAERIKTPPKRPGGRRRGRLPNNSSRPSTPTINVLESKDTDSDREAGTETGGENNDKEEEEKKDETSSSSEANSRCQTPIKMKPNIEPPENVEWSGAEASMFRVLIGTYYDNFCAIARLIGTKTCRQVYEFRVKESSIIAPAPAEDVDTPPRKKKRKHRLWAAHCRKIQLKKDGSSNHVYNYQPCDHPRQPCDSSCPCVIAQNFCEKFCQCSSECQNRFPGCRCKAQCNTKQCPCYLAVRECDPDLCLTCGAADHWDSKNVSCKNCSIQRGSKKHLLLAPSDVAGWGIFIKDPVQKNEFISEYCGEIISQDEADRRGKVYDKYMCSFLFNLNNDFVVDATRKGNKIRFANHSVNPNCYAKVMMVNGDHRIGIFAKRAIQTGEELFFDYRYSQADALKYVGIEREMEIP
UniProt P06730: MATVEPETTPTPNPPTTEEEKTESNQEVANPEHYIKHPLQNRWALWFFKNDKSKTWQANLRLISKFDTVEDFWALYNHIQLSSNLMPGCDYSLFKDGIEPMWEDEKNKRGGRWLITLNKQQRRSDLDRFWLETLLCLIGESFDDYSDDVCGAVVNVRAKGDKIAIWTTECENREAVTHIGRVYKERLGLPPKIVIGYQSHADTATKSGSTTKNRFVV
UniProt P11940: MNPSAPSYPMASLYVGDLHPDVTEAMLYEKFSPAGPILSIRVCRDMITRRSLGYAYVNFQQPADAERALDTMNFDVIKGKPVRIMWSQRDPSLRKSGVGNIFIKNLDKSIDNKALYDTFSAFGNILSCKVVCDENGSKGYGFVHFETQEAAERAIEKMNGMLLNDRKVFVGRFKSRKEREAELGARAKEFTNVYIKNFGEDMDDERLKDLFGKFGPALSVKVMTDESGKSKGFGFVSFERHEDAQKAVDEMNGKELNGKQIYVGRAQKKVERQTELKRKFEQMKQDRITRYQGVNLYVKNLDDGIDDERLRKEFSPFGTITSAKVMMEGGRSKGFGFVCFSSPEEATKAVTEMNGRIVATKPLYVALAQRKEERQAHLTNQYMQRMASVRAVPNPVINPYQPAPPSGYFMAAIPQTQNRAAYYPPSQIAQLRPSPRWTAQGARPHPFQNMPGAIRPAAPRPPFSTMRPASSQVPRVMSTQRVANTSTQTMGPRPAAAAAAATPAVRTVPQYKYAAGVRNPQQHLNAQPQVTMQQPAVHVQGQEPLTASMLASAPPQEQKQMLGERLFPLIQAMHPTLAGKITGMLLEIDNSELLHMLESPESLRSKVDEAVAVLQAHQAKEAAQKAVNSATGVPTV

Target: SFB-tagged EZH2 (human) (UniProt Q15910)
Assay: affinity purification with mass spectrometry

| binding | Substance |
| --- | --- |
| no binding | eIF4E (from UniProt P06730 1-217) |
| binds | poly(A)-binding protein-1 (from UniProt P11940 1-636) |
